Test results taken from PubChem BioAssay AID540276 (National Center for Advancing Translational Sciences (NCATS), 2011).
Values joined by “and” are separate entries in the source; they are usually repeats but may differ in a detail not shown here. Identical values can stand only once. Among all 300,000 compounds or so, about 5,400 (1.8%) were called active. The inconclusive results got no clear call from the source; some entries with a clear call stand among them for comparison. Calls come from the whole dose curve; tested in HEK293 cells. Potencies of inconclusive entries are doubtful fits and often do not repeat.

Assay: qHTS for inhibitors of binding or entry into cells for Marburg Virus
Details: Marburg virus pseudotyped entry inhibition, cell reporter; activity change, negative = inhibition: at 37.8 µM (top of the series) unless noted
% is set by controls: 0 for no effect and ±100 for the full control effect; potency is the fitted concentration of half-maximal effect.

Compound	Potency	activity change, negative = inhibition
O=C(Nc1cc(C(=O)Nc2ccc(S(=O)(=O)O)cc2S(=O)(=O)O)cc(C(=O)Nc2ccc(S(=O)(=O)O)cc2S(=O)(=O)O)c1)Nc1cc(C(=O)Nc2ccc(S(=O)(=O)O)cc2S(=O)(=O)O)cc(C(=O)Nc2ccc(S(=O)(=O)O)cc2S(=O)(=O)O)c1	active: 12.6 µM	–
COC(=O)c1ccc(C2OCC(C)(C)CO2)cc1	inconclusive: 6.31 µM [activator, partial curve, poor fit]	–
COCCCNC(=O)CCc1ccccc1	–	inactive: 17.5% [at 46.1 µM]
O=C(Nc1ccccc1Cl)NC1(C(=O)NCC2CCCO2)CCCCC1 (stereo not drawn)	–	inactive: -3.46% [at 46.1 µM]
COC(=O)/C(=C1/Oc2cc3c(cc2S1)OCO3)C(F)(F)F	inconclusive: 29.1 µM [activator, single point]	–
CCn1c(=O)cc(SCC(=O)NCCN2CCN(Cc3ccccc3)CC2)c2ccccc21	inconclusive: 1.3 µM [activator, full curve, poor fit]	–
COc1cccc(C(=O)NC(=S)Nc2ccc([N+](=O)[O-])cc2C)c1	inconclusive: 2.82 µM [activator, full curve, poor fit]	–
Cc1cc(/C=C2\Cc3ccccc3C2=O)c(C)n1-c1ccccc1	inconclusive: 7.08 µM [inhibitor, full curve, poor fit]	–
CC(C)c1cc(C(=O)N2CCCC(CCC(=O)N3CCN(c4ccccn4)CC3)C2)no1 (stereo not drawn)	–	inactive: -20.4% [at 46.1 µM]
CN1CCN(CCCN(Cc2ccco2)C(=S)Nc2ccc(Cl)cc2)CC1	inconclusive: 14.1 µM [inhibitor, partial curve, poor fit]	–
COc1cc(-c2ccc(=O)[nH]n2)ccc1OC(F)F	inconclusive: 0.0224 µM [inhibitor, full curve]	–
NC(N)=N/N=C/c1ccc(OCc2ccc(Cl)cc2)cc1	inconclusive: 16.4 µM [inhibitor, single point]	–
COCc1nnc(NS(=O)(=O)c2ccc(C)cc2)s1	inconclusive: 20 µM [activator, partial curve, poor fit]	–
Cc1ccc(-c2csc3ncnc(SCC(=O)Nc4nnc(C)s4)c23)cc1	inconclusive: 4.61 µM [inhibitor, full curve]	–
COc1ccc(-c2nc3n(n2)C(=O)C[C@@H](c2ccco2)S3)cc1	–	inactive: 9.9%
Cc1cccc(N2CCN(C(=O)C3CCC(CNS(=O)(=O)c4cccs4)CC3)CC2)c1C (stereo not drawn)	inconclusive: 3.55 µM [inhibitor, full curve, poor fit]	–
Cn1cccc1/C=N/n1c(-c2ccc(C(C)(C)C)cc2)n[nH]c1=S	inconclusive: 3.98 µM [activator, full curve]	–
CCN(CC)S(=O)(=O)c1cc(-c2nnc(-c3ccc(Br)cc3)o2)ccc1Cl	inconclusive: 35.5 µM [inhibitor, single point]	–
Cc1cccc(C)c1Nc1nnc(SCC(=O)Nc2cc(S(=O)(=O)N3CCCCC3)ccc2Cl)s1	inconclusive: 35.5 µM [inhibitor, single point]	–

Compound	Potency	activity change, negative = inhibition
Cc1ccc(C(C(=O)NC(C)(C)C)N(C(=O)CCC(=O)Nc2ccccn2)c2ccccc2F)cc1 (stereo not drawn)	inconclusive: 35.5 µM [inhibitor, single point]	–
CC(=O)c1c(C)[nH]c(C(=O)OC(C)C(=O)Nc2cc(S(=O)(=O)N3CCCCC3)ccc2Cl)c1C (stereo not drawn)	inconclusive: 0.891 µM [inhibitor, full curve, poor fit]	–
CCCCN1c2ccccc2N(CCCO)c2cc(C)nnc21	inconclusive: 1.26 µM [inhibitor, single point]	–
Cc1cc(=O)oc2cc(OCc3nnc(-c4ccccc4Br)o3)ccc12	inconclusive: 35.5 µM [inhibitor, single point]	–
Cc1nnc(NC(=O)NC(C)N2C(=O)C3C4C=CC(C4)C3C2=O)s1 (stereo not drawn)	inactive and inconclusive: 5.62 µM [inhibitor, single point]	–
CCc1cccc(Nc2c([N+](=O)[O-])cc(C(=O)N3CC(=O)Nc4ccccc43)cc2[N+](=O)[O-])c1	–	inactive: -37.8%
CCC(C)NC(=O)CSc1nc2cc3c(cc2c(=O)n1Cc1ccco1)OCO3 (stereo not drawn)	–	inactive: 21.2% [at 46.1 µM]
COC(=O)[C@@H]1CC[C@H](C)[C@@H](c2ccc(C)cc2)N1C(=O)c1ccc(C=NO[C@H](C)CN2CCCc3nc(C)c(C)cc32)cc1	inconclusive: 3.35 µM [inhibitor, partial curve, poor fit]	–
O=C(COc1ccc([N+](=O)[O-])cc1)N1CCC(c2nc3ccccc3s2)CC1	inconclusive: 8.91 µM [inhibitor, partial curve, poor fit]	–
CCOc1ccc(NC(=S)NNc2ccnc3cc(Cl)ccc23)cc1	inconclusive: 10 µM [inhibitor, partial curve, poor fit]	–
COc1ccc(OC)c2[nH]c(=O)c(CCNC(=O)COc3ccccc3)cc12	inconclusive: 35.5 µM [inhibitor, single point]	–
O=C(N/N=C/c1ccc(-c2cccc([N+](=O)[O-])c2)o1)[C@H]1C[C@@H]1c1ccccc1	–	inactive: 3.74%
CC(C)(CC(=O)OCC(=O)Nc1ccccc1F)CC1=NS(=O)(=O)c2ccccc2N1	inconclusive: 2.51 µM [inhibitor, single point]	–
COCCn1c(C)cc(C(=O)CSc2ncn[nH]2)c1C	inconclusive: 25.9 µM [activator, single point]	–
CCOC(=O)Cn1c(=O)c2c(nc(N3CCOCC3)n2Cc2ccccc2)n(C)c1=O	inconclusive: 5.62 µM [inhibitor, single point]	–
COC(=O)Cn1c2ccc(F)cc2c2nc(C)sc21	inconclusive: 29.1 µM [activator, single point]	–
Cc1ccsc1C(=O)NCCc1ccc(S(N)(=O)=O)cc1	inconclusive: 3.16 µM [activator, single point]	–
Cc1ccc(/C=N/NC(=O)c2ccc(N(C)S(=O)(=O)c3ccccc3)cc2)cc1	inconclusive: 10 µM [inhibitor, partial curve, poor fit]	–
O=C(CSc1nc2nn(-c3ccccc3)c(=O)c-2c2n1CCCCC2)Nc1ccccc1[N+](=O)[O-]	–	inactive: 3.36%
